No constants are given. Whether binding was seen depends on the method and setting. Binding seen in cells or lysates may run through a third protein. Some binding calls cover weakened binding; strength is not graded here.
Biological target: basic helix-loop-helix family member E40 (BHLHE40) (human (endogenous in the paper's human cell lines; line not stated for this experiment)) (UniProt O14503)
Test: co-IP; endogenous proteins; cells lysed in RIPA buffer with protease and phosphatase inhibitors; supernatant incubated with anti-BHLHE40 antibody at 4 °C overnight, protein A/G magnetic beads, washed with RIPA buffer; western blot with anti-CCDC86 antibody

Sequences of proteins named here, by UniProt entry; tags and fusion partners are left off.
UniProt O14503: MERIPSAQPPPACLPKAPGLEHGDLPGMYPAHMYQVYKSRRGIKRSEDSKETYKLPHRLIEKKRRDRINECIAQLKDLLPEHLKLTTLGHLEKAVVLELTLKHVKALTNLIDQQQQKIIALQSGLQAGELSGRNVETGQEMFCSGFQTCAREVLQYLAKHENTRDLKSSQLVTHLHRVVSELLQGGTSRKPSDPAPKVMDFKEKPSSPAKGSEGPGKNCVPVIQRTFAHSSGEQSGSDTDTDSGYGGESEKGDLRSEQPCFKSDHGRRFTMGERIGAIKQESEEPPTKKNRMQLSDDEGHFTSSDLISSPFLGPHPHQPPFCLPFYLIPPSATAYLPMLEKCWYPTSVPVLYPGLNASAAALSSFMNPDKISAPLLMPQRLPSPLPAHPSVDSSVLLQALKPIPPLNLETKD

B1: coiled-coil domain containing 86 (CCDC86) (protein, UniProt Q9H6F5 1-360)
chain: MDTPLRRSRRLGGLRPESPESLTSVSRTRRALVEFESNPEETREPGSPPSVQRAGLGSPERPPKTSPGSPRLQQGAGLESPQGQPEPGAASPQRQQDLHLESPQRQPEYSPESPRCQPKPSEEAPKCSQDQGVLASELAQNKEELTPGAPQHQLPPVPGSPEPYPGQQAPGPEPSQPLLELTPRAPGSPRGQHEPSKPPPAGETVTGGFGAKKRKGSSSQAPASKKLNKEELPVIPKGKPKSGRVWKDRSKKRFSQMLQDKPLRTSWQRKMKERQERKLAKDFARHLEEEKERRRQEKKQRRAENLKRRLENERKAEVVQVIRNPAKLKRAKKKQLRSIEKRDTLALLQKQPPQQPAAKI
binding: binds
